Tested on: YTHDF2 RNA binding in K562 cells
Test: eCLIP of YTHDF2-bound RNAs
Format: cell-based, human

SMILES: O=C(O)c1ccc(-n2cc(C(=O)c3c(O)ccc4ccccc34)cn2)cc1 [CK-75]
- change in the global RBP-binding pattern in eCLIP (in words): did not lead to significant changes
- windows differentially enriched in treated cells (Z-score >3 or <−3) (20 μM, 4 h): 23 windows
- share of DMSO eCLIP windows significantly enriched in the treated eCLIP (20 μM, 4 h, 5606/6618): 84.71%
- DMSO eCLIP windows (of 6618) also significantly enriched in the treated eCLIP (20 μM, 4 h, log2 fold change >1, p < 0.05): 5606 windows

Reference: PMC11862924, “Phenylpyrazoles as Inhibitors of the m^6A RNA-Binding Protein YTHDF2” (JACS Au, 2025)
